{"source": "PubChem BioAssay AID1159578 (Peter MacCallum Cancer Centre, 2015)", "assay": "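siRNA pools altering how lymphatic endothelial cells close a scratch wound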 (primary screen)", "system": "human lymphatic endothelial cells", "reagent": "siRNA pool against human genes, 40 nM", "time to read-out": "48 h after transfection", "read-out": "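High-content imaging of dye-stained cells in a scratch assay measures filled wound area and nuclei per well; duplicate means given as ratio to mock and robust z-score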", "reading the numbers": "migration robust z-score: higher = faster migration into the scratch; nuclei per well: higher = more cells in the well", "hit rule": "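Pools averaging fewer than 3300 nuclei are never called; remaining pools count as changed when migration robust z lies outside -2 to 2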", "calls": "active = migration changed; inactive = no migration change, or too few cells", "note": "Shown is an unselected part of about 18,000 reagents. Of all reagents, about 1,030 (5.7%) got an active call. 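Inactive calls also include pools with fewer than 3300 nuclei, whose migration was not assessed.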 Raw values are not corrected between plates. Not all columns of the deposit are shown."}
{"gene knocked down":"LHFPL2 (LHFPL tetraspan subfamily member 2)","PubChem SID":"SID255354876","migration robust z-score":0.24,"migration class with cell-count check":"migration z between -2 and 2; enough cells","nuclei per well, duplicate mean":5604,"Outcome":"inactive"}
{"gene knocked down":"CDC42SE2 (CDC42 small effector 2)","PubChem SID":"SID255359216","migration robust z-score":0.26,"migration class with cell-count check":"migration z between -2 and 2; enough cells","nuclei per well, duplicate mean":6370,"Outcome":"inactive"}
{"gene knocked down":"KIF27 (kinesin family member 27)","PubChem SID":"SID255358696","migration robust z-score":-0.5,"migration class with cell-count check":"migration z between -2 and 2; enough cells","nuclei per well, duplicate mean":6779,"Outcome":"inactive"}
{"gene knocked down":"BCORL1 (BCL6 corepressor like 1)","PubChem SID":"SID255359748","migration robust z-score":0.48,"migration class with cell-count check":"migration z between -2 and 2; enough cells","nuclei per well, duplicate mean":5286,"Outcome":"inactive"}
{"gene knocked down":"CBLN1 (cerebellin 1 precursor)","PubChem SID":"SID255348721","migration robust z-score":0.14,"migration class with cell-count check":"migration z between -2 and 2; enough cells","nuclei per well, duplicate mean":5048,"Outcome":"inactive"}
{"gene knocked down":"USP4 (ubiquitin specific peptidase 4)","PubChem SID":"SID255353069","migration robust z-score":-0.24,"migration class with cell-count check":"migration z between -2 and 2; enough cells","nuclei per well, duplicate mean":5360,"Outcome":"inactive"}
{"gene knocked down":"ERO1B (endoplasmic reticulum oxidoreductase 1 beta)","PubChem SID":"SID255359093","migration robust z-score":1.41,"migration class with cell-count check":"migration z between -2 and 2; enough cells","nuclei per well, duplicate mean":6434,"Outcome":"inactive"}
{"gene knocked down":"ERCC3 (ERCC excision repair 3, TFIIH core complex helicase subunit)","PubChem SID":"SID255349548","migration robust z-score":0.18,"migration class with cell-count check":"migration z between -2 and 2; enough cells","nuclei per well, duplicate mean":4410,"Outcome":"inactive"}
{"gene knocked down":"FGF13 (fibroblast growth factor 13)","PubChem SID":"SID255349678","migration robust z-score":-0.68,"migration class with cell-count check":"migration z between -2 and 2; enough cells","nuclei per well, duplicate mean":5258,"Outcome":"inactive"}
{"gene knocked down":"TCL1A (TCL1 family AKT coactivator A)","PubChem SID":"SID255353397","migration robust z-score":0.28,"migration class with cell-count check":"migration z between -2 and 2; enough cells","nuclei per well, duplicate mean":4569,"Outcome":"inactive"}
{"gene knocked down":"ZSWIM8 (zinc finger SWIM-type containing 8)","PubChem SID":"SID255355955","migration robust z-score":0.58,"migration class with cell-count check":"migration z between -2 and 2; enough cells","nuclei per well, duplicate mean":6462,"Outcome":"inactive"}
{"gene knocked down":"ARPC3 (actin related protein 2/3 complex subunit 3)","PubChem SID":"SID255354802","migration robust z-score":-0.55,"migration class with cell-count check":"migration z between -2 and 2; enough cells","nuclei per well, duplicate mean":6067,"Outcome":"inactive"}
{"gene knocked down":"SORL1 (sortilin related receptor 1)","PubChem SID":"SID255352569","migration robust z-score":0.16,"migration class with cell-count check":"migration z between -2 and 2; enough cells","nuclei per well, duplicate mean":5704,"Outcome":"inactive"}
{"gene knocked down":"EMC4 (ER membrane protein complex subunit 4)","PubChem SID":"SID255357578","migration robust z-score":-0.01,"migration class with cell-count check":"migration z between -2 and 2; enough cells","nuclei per well, duplicate mean":7038,"Outcome":"inactive"}
{"gene knocked down":"NRL (neural retina leucine zipper)","PubChem SID":"SID255351305","migration robust z-score":-1.38,"migration class with cell-count check":"migration z between -2 and 2; enough cells","nuclei per well, duplicate mean":3868,"Outcome":"inactive"}
{"gene knocked down":"SMAD5 (SMAD family member 5)","PubChem SID":"SID255350838","migration robust z-score":-0.36,"migration class with cell-count check":"migration z between -2 and 2; enough cells","nuclei per well, duplicate mean":8403,"Outcome":"inactive"}
{"gene knocked down":"CXorf66 (chromosome X open reading frame 66)","PubChem SID":"SID255365223","migration robust z-score":-0.62,"migration class with cell-count check":"migration z between -2 and 2; enough cells","nuclei per well, duplicate mean":6241,"Outcome":"inactive"}
{"gene knocked down":"HDAC3 (histone deacetylase 3)","PubChem SID":"SID255353859","migration robust z-score":-0.28,"migration class with cell-count check":"migration z between -2 and 2; enough cells","nuclei per well, duplicate mean":5197,"Outcome":"inactive"}
{"gene knocked down":"ZC3HAV1L (ZC3HAV1 like)","PubChem SID":"SID255361978","migration robust z-score":0.32,"migration class with cell-count check":"migration z between -2 and 2; enough cells","nuclei per well, duplicate mean":6630,"Outcome":"inactive"}
{"gene knocked down":"MAGEA10 (MAGE family member A10)","PubChem SID":"SID255350853","migration robust z-score":-2.92,"migration class with cell-count check":"migration z below -2; enough cells","nuclei per well, duplicate mean":5178,"Outcome":"active"}
{"gene knocked down":"SLC35F1","PubChem SID":"SID255364349","migration robust z-score":1.09,"migration class with cell-count check":"migration z between -2 and 2; enough cells","nuclei per well, duplicate mean":6736,"Outcome":"inactive"}
